Test results reported in paper doi:10.1101/2020.09.10.288878.

Target: Sli15 MTB-12Q fused to the DNA binding domain of Gal4 (S. cerevisiae)
Assay: two-hybrid

B1: Dam1 fused to the activation domain of Gal4 (protein, UniProt P53267 1-343)
chain: MSEDKAKLGTTRSATEYRLSIGSAPTSRRSSMGESSSLMKFADQEGLTSSVGEYNENTIQQLLLPKIRELSDSIITLDSNFTRLNFIHESLADLNESLGSLLYGIMSNSWCVEFSQAPHDIQDDLIAIKQLKSLEDEKNNLVMELSNMERGIKRKKDEQGENDLAKASQNKQFNQPLFPSSQVRKYRSYDNRDKRKPSKIGNNLQVENEEDYEDDTSSEASFVLNPTNIGMSKSSQGHVTKTTRLNNNTNSKLRRKSILHTIRNSIASGADLPIENDNVVNLGDLHPNNRISLGSGAARVVNGPVTKNRNSMFSGRAERKPTESRHSVAKKTEKKINTRPPFR
In the case of B1, the binding is reported as “no binding”.

No constants are given. Whether binding was seen depends on the method and setting. Tags and fused reporters may be left off the sequences shown.
